Some results were stated once for a whole list of compounds, not compound by compound.
System: amber codon at position 33 of human superoxide dismutase (hSOD (Trp 33 TAG) HIS)
Test: hSOD (33TAG)HIS protein expression in S. cerevisiae genetically encoding unnatural amino acids (SDS-PAGE, western blot, densitometry, Ni-NTA purification)
Type: cell-based, Saccharomyces cerevisiae
Details: gene with amber codon at position 33; compared with p-acetylPheRS-1-tRNACUA plus 1 mM p-acetyl-L-phenylalanine

CC(=O)c1ccc(C[C@H](N)C(=O)O)cc1 [p-acetyl-L-phenylalanine]
Production of hexa-histidine-tagged hSOD in the absence of the component, by densitometry: < 0.1%
